No constants are given. Whether binding was seen depends on the method and setting. Binding seen in cells or lysates may run through a third protein. A yes stands for co-enrichment or nearness to the bait. Other partners may have been found. Where a sequence is shown, tags or fusion partners need not be part of it.
T1: FLAG-BirA*-tagged Dyrk2, wild type (human) (UniProt Q92630)
T1 sequence: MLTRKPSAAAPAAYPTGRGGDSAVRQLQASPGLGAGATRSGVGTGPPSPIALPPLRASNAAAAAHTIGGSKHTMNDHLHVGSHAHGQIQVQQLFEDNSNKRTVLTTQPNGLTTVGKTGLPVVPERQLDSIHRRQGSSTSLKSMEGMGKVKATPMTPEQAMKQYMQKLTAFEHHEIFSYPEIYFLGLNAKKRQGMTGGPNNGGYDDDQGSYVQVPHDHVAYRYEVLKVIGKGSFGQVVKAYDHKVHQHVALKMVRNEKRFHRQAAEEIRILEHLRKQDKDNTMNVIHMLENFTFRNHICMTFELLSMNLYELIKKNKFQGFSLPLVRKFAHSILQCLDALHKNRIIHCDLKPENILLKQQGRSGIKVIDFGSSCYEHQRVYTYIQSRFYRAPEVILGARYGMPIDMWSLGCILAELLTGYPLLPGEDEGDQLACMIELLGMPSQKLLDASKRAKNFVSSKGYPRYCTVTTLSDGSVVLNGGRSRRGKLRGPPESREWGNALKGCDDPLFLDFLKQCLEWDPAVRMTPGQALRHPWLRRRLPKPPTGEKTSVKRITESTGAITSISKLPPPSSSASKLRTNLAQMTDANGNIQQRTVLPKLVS

Sequences of proteins named here, by UniProt entry; tags and fusion partners are left off.
UniProt Q16531: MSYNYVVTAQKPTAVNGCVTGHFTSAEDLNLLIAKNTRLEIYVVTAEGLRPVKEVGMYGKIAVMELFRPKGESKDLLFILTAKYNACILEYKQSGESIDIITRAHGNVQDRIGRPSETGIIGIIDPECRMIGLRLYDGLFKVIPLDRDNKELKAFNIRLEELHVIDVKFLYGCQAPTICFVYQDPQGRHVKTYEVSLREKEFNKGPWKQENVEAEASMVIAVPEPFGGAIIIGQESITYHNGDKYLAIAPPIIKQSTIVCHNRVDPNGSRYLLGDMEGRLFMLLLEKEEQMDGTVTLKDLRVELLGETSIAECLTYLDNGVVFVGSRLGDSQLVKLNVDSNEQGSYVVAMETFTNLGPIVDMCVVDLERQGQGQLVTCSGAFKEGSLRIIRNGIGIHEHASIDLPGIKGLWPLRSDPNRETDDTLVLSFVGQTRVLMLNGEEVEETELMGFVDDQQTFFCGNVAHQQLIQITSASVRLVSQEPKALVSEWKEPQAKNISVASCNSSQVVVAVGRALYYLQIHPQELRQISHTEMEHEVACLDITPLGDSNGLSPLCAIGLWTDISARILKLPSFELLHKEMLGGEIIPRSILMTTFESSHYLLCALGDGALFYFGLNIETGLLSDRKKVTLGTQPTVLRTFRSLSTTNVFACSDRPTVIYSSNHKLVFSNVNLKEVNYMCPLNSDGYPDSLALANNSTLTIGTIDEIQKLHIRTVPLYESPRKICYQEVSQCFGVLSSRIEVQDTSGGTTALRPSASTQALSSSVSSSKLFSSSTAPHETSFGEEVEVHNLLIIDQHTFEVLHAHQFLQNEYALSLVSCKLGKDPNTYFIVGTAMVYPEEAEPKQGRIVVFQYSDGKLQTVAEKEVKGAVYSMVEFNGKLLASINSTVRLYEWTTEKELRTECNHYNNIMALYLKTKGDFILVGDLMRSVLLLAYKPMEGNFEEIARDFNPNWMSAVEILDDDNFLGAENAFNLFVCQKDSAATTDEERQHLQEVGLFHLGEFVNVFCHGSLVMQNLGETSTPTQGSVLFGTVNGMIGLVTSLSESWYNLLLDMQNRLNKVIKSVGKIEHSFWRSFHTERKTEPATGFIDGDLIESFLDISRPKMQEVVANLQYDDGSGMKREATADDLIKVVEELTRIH
UniProt Q9Y4B6: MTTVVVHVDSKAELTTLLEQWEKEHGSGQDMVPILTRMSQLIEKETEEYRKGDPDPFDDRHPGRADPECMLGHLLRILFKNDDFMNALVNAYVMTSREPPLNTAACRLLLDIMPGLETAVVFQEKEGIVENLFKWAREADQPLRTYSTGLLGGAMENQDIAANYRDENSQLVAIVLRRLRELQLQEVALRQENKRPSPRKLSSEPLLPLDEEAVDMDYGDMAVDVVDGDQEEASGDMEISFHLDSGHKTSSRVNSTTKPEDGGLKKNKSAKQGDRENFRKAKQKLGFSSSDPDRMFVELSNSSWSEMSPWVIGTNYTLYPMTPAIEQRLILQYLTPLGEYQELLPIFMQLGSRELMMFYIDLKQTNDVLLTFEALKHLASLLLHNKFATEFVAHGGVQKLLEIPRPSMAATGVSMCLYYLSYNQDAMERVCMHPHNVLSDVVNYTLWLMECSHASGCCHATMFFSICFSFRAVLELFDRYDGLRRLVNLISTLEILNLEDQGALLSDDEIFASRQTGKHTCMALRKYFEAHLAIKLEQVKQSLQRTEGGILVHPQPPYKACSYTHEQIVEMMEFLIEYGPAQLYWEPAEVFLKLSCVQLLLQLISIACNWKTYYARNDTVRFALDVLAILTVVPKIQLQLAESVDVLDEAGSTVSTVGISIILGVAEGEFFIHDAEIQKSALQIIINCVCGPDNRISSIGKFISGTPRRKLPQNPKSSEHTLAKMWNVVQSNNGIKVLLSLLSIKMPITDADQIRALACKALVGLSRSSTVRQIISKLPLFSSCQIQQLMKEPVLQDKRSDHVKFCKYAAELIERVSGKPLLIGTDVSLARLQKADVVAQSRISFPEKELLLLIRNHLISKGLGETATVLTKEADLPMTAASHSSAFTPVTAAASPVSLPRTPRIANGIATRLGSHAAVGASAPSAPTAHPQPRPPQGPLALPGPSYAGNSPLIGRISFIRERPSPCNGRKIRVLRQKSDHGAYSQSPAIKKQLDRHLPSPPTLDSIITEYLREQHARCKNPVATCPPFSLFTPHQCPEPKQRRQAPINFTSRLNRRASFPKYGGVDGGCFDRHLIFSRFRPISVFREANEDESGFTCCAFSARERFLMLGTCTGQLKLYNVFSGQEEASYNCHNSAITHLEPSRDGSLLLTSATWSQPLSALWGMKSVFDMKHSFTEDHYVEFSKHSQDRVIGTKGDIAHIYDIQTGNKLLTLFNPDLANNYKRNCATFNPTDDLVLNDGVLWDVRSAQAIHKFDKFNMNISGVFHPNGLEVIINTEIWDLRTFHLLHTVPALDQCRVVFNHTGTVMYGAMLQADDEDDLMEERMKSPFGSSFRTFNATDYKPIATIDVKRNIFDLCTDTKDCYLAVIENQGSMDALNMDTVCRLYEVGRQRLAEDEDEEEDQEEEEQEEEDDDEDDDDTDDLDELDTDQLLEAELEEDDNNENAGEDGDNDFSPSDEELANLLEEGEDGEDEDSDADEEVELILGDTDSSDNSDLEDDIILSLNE

T2: Strep-HA-tagged Dyrk2 (dual-specificity tyrosine-phosphorylation-regulated kinase 2), wild type (human) (UniProt Q92630)
T2 sequence: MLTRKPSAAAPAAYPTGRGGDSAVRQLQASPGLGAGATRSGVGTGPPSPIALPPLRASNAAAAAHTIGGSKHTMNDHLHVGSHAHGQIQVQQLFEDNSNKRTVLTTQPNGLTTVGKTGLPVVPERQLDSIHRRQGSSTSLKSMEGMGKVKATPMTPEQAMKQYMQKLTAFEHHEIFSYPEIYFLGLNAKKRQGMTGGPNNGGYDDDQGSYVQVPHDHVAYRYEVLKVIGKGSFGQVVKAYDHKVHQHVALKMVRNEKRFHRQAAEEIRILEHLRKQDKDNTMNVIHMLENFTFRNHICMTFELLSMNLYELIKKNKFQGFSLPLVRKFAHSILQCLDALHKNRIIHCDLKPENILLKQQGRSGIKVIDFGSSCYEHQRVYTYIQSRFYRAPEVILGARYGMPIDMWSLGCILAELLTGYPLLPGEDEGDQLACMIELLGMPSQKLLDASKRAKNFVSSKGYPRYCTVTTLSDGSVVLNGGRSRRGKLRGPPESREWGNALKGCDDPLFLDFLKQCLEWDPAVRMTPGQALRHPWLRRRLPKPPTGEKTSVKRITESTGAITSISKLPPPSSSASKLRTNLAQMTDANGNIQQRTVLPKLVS


Tests used:
[1] = target: T1, FLAG-BirA*-tagged Dyrk2, wild type (human); experiment: proximity labelling; BioID-MS: FLAG-BirA*-tagged bait stably expressed in T-REx HEK293 Flp-In cells, 50 uM biotin for 24 h, RIPA lysate on Strep-Tactin beads, on-bead digest; SAINTexpress score = 1 against BirA*-GFP and no-biotin controls; mutants compared with wild type by bait-normalised LFQ MS1 intensities
[2] = target: T2, Strep-HA-tagged Dyrk2 (dual-specificity tyrosine-phosphorylation-regulated kinase 2), wild type (human); experiment: affinity purification with mass spectrometry; Strep/HA (SH)-tagged bait stably integrated in T-REx HEK293 Flp-In cells, induced 24 h; lysate (0.5% NP40, 50 mM HEPES pH 7.5, 150 mM NaCl, 50 mM NaF) on Strep-Tactin beads, eluted with 2 mM biotin; SAINTexpress score > 0.95 against Strep/HA-GFP controls and CRAPome filter; mutants compared with wild type by bait-normalised LFQ MS1 intensities

| Molecule | binding [1] | binding [2] |
| --- | --- | --- |
| DDB1 (from UniProt Q16531 1-1140) | binds | binds |
| NUP107 (protein, UniProt P57740 1-925) MDRSGFGEISSPVIREAEVTRTARKQSAQKRVLLQASQDENFGNTTPRNQVIPRTPSSFRQPFTPTSRSLLRQPDISCILGTGGKSPRLTQSSGFFGNLSMVTNLDDSNWAAAFSSQRSGLFTNTEPHSITEDVTISAVMLREDDPGEAASMSMFSDFLQSFLKHSSSTVFDLVEEYENICGSQVNILSKIVSRATPGLQKFSKTASMLWLLQQEMVTWRLLASLYRDRIQSALEEESVFAVTAVNASEKTVVEALFQRDSLVRQSQLVVDWLESIAKDEIGEFSDNIEFYAKSVYWENTLHTLKQRQLTSYVGSVRPLVTELDPDAPIRQKMPLDDLDREDEVRLLKYLFTLIRAGMTEEAQRLCKRCGQAWRAATLEGWKLYHDPNVNGGTELEPVEGNPYRRIWKISCWRMAEDELFNRYERAIYAALSGNLKQLLPVCDTWEDTVWAYFRVMVDSLVEQEIQTSVATLDETEELPREYLGANWTLEKVFEELQATDKKRVLEENQEHYHIVQKFLILGDIDGLMDEFSKWLSKSRNNLPGHLLRFMTHLILFFRTLGLQTKEEVSIEVLKTYIQLLIREKHTNLIAFYTCHLPQDLAVAQYALFLESVTEFEQRHHCLELAKEADLDVATITKTVVENIRKKDNGEFSHHDLAPALDTGTTEEDRLKIDVIDWLVFDPAQRAEALKQGNAIMRKFLASKKHEAAKEVFVKIPQDSIAEIYNQCEEQGMESPLPAEDDNAIREHLCIRAYLEAHETFNEWFKHMNSVPQKPALIPQPTFTEKVAHEHKEKKYEMDFGIWKGHLDALTADVKEKMYNVLLFVDGGWMVDVREDAKEDHERTHQMVLLRKLCLPMLCFLLHTILHSTGQYQECLQLADMVSSERHKLYLVFSKEELRKLLQKLRESSLMLLDQGLDPLGYEIQL | binds |  |
| NUP96 (protein, UniProt P52948 881-1817) SKYGLQDSDEEEEEHPSKTSTKKLKTAPLPPASQTTPLQMALNGKPAPPPQSQSPEVEQLGRVVELDSDMVDITQEPVLDTMLEESMPEDQEPVSASTHIASSLGINPHVLQIMKASLLTDEEDVDMALDQRFSRLPSKADTSQEICSPRLPISASHSSKTRSLVGGLLQSKFTSGAFLSPSVSVQECRTPRAASLMNIPSTSSWSVPPPLTSVFTMPSPAPEVPLKTVGTRRQLGLVPREKSVTYGKGKLLMDMALFMGRSFRVGWGPNWTLANSGEQLNGSHELENHQIADSMEFGFLPNPVAVKPLTESPFKVHLEKLSLRQRKPDEDMKLYQTPLELKLKHSTVHVDELCPLIVPNLGVAVIHDYADWVKEASGDLPEAQIVKHWSLTWTLCEALWGHLKELDSQLNEPREYIQILERRRAFSRWLSCTATPQIEEEVSLTQKNSPVEAVFSYLTGKRISEACSLAQQSGDHRLALLLSQFVGSQSVRELLTMQLVDWHQLQADSFIQDERLRIFALLAGKPVWQLSEKKQINVCSQLDWKRSLAIHLWYLLPPTASISRALSMYEEAFQNTSDSDRYACSPLPSYLEGSGCVIAEEQNSQTPLRDVCFHLLKLYSDRHYDLNQLLEPRSITADPLDYRLSWHLWEVLRALNYTHLSAQCEGVLQASYAGQLESEGLWEWAIFVLLHIDNSGIREKAVRELLTRHCQLLETPESWAKETFLTQKLRVPAKWIHEAKAVRAHMESDKHLEALCLFKAEHWNRCHKLIIRHLASDAIINENYDYLKGFLEDLAPPERSSLIQDWETSGLVYLDYIRVIEMLRHIQQVDCSGNDLEQLHIKVTSLCSRIEQIQCYSAKDRLAQSDMAKRVANLLRVVLSLHHPPDRTSDSTPDPQRVPLRLLAPHIGRLPMPEDYAMDELRSLTQSYLRELAVGSL | binds |  |
| NUP85 (protein, UniProt Q9BW27 1-656) MEELDGEPTVTLIPGVNSKKNQMYFDWGPGEMLVCETSFNKKEKSEMVPSCPFIYIIRKDVDVYSQILRKLFNESHGIFLGLQRIDEELTGKSRKSQLVRVSKNYRSVIRACMEEMHQVAIAAKDPANGRQFSSQVSILSAMELIWNLCEILFIEVAPAGPLLLHLLDWVRLHVCEVDSLSADVLGSENPSKHDSFWNLVTILVLQGRLDEARQMLSKEADASPASAGICRIMGDLMRTMPILSPGNTQTLTELELKWQHWHEECERYLQDSTFATSPHLESLLKIMLGDEAALLEQKELLSNWYHFLVTRLLYSNPTVKPIDLHYYAQSSLDLFLGGESSPEPLDNILLAAFEFDIHQVIKECSIALSNWWFVAHLTDLLDHCKLLQSHNLYFGSNMREFLLLEYASGLFAHPSLWQLGVDYFDYCPELGRVSLELHIERIPLNTEQKALKVLRICEQRQMTEQVRSICKILAMKAVRNNRLGSALSWSIRAKDAAFATLVSDRFLRDYCERGCFSDLDLIDNLGPAMMLSDRLTFLGKYREFHRMYGEKRFADAASLLLSLMTSRIAPRSFWMTLLTDALPLLEQKQVIFSAEQTYELMRCLEDLTSRRPVHGESDTEQLQDDDIETTKVEMLRLSLARNLARAIIREGSLEGS | binds |  |

More lines, now with the values ahead:

| binding [1] | binding [2] | Molecule |
| --- | --- | --- |
| binds | binds | VprBP (from UniProt Q9Y4B6 1-1507) |
| binds |  | NUP133 (protein, UniProt Q8WUM0 1-1156) MFPAAPSPRTPGTGSRRGPLAGLGPGSTPRTASRKGLPLGSAVSSPVLFSPVGRRSSLSSRGTPTRMFPHHSITESVNYDVKTFGSSLPVKVMEALTLAEVDDQLTINIDEGGWACLVCKEKLIIWKIALSPITKLSVCKELQLPPSDFHWSADLVALSYSSPSGEAHSTQAVAVMVATREGSIRYWPSLAGEDTYTEAFVDSGGDKTYSFLTAVQGGSFILSSSGSQLIRLIPESSGKIHQHILPQGQGMLSGIGRKVSSLFGILSPSSDLTLSSVLWDRERSSFYSLTSSNISKWELDDSSEKHAYSWDINRALKENITDAIWGSESNYEAIKEGVNIRYLDLKQNCDGLVILAAAWHSADNPCLIYYSLITIEDNGCQMSDAVTVEVTQYNPPFQSEDLILCQLTVPNFSNQTAYLYNESAVYVCSTGTGKFSLPQEKIVFNAQGDSVLGAGACGGVPIIFSRNSGLVSITSRENVSILAEDLEGSLASSVAGPNSESMIFETTTKNETIAQEDKIKLLKAAFLQYCRKDLGHAQMVVDELFSSHSDLDSDSELDRAVTQISVDLMDDYPASDPRWAESVPEEAPGFSNTSLIILHQLEDKMKAHSFLMDFIHQVGLFGRLGSFPVRGTPMATRLLLCEHAEKLSAAIVLKNHHSRLSDLVNTAILIALNKREYEIPSNLTPADVFFREVSQVDTICECLLEHEEQVLRDAPMDSIEWAEVVINVNNILKDMLQAASHYRQNRNSLYRREESLEKEPEYVPWTATSGPGGIRTVIIRQHEIVLKVAYPQADSNLRNIVTEQLVALIDCFLDGYVSQLKSVDKSSNRERYDNLEMEYLQKRSDLLSPLLSLGQYLWAASLAEKYCDFDILVQMCEQTDNQSRLQRYMTQFADQNFSDFLFRWYLEKGKRGKLLSQPISQHGQLANFLQAHEHLSWLHEINSQELEKAHATLLGLANMETRYFAKKKTLLGLSKLAALASDFSEDMLQEKIEEMAEQERFLLHQETLPEQLLAEKQLNLSAMPVLTAPQLIGLYICEENRRANEYDFKKALDLLEYIDEEEDININDLKLEILCKALQRDNWSSSDGKDDPIEVSKDSIFVKILQKLLKDGIQLSEYLPEVKDLLQADQLGSLKSNPYFEFVLKANYEYYVQGQI |
| binds |  | NUP160 (protein, UniProt Q12769 1-1436) MLHLSAAPPAPPPEVTATARPCLCSVGRRGDGGKMAAAGALERSFVELSGAERERPRHFREFTVCSIGTANAVAGAVKYSESAGGFYYVESGKLFSVTRNRFIHWKTSGDTLELMEESLDINLLNNAIRLKFQNCSVLPGGVYVSETQNRVIILMLTNQTVHRLLLPHPSRMYRSELVVDSQMQSIFTDIGKVDFTDPCNYQLIPAVPGISPNSTASTAWLSSDGEALFALPCASGGIFVLKLPPYDIPGMVSVVELKQSSVMQRLLTGWMPTAIRGDQSPSDRPLSLAVHCVEHDAFIFALCQDHKLRMWSYKEQMCLMVADMLEYVPVKKDLRLTAGTGHKLRLAYSPTMGLYLGIYMHAPKRGQFCIFQLVSTESNRYSLDHISSLFTSQETLIDFALTSTDIWALWHDAENQTVVKYINFEHNVAGQWNPVFMQPLPEEEIVIRDDQDPREMYLQSLFTPGQFTNEALCKALQIFCRGTERNLDLSWSELKKEVTLAVENELQGSVTEYEFSQEEFRNLQQEFWCKFYACCLQYQEALSHPLALHLNPHTNMVCLLKKGYLSFLIPSSLVDHLYLLPYENLLTEDETTISDDVDIARDVICLIKCLRLIEESVTVDMSVIMEMSCYNLQSPEKAAEQILEDMITIDVENVMEDICSKLQEIRNPIHAIGLLIREMDYETEVEMEKGFNPAQPLNIRMNLTQLYGSNTAGYIVCRGVHKIASTRFLICRDLLILQQLLMRLGDAVIWGTGQLFQAQQDLLHRTAPLLLSYYLIKWGSECLATDVPLDTLESNLQHLSVLELTDSGALMANRFVSSPQTIVELFFQEVARKHIISHLFSQPKAPLSQTGLNWPEMITAITSYLLQLLWPSNPGCLFLECLMGNCQYVQLQDYIQLLHPWCQVNVGSCRFMLGRCYLVTGEGQKALECFCQAASEVGKEEFLDRLIRSEDGEIVSTPRLQYYDKVLRLLDVIGLPELVIQLATSAITEAGDDWKSQATLRTCIFKHHLDLGHNSQAYEALTQIPDSSRQLDCLRQLVVVLCERSQLQDLVEFPYVNLHNEVVGIIESRARAVDLMTHNYYELLYAFHIYRHNYRKAGTVMFEYGMRLGREVRTLRGLEKQGNCYLAALNCLRLIRPEYAWIVQPVSGAVYDRPGASPKRNHDGECTAAPTNRQIEILELEDLEKECSLARIRLTLAQHDPSAVAVAGSSSAEEMVTLLVQAGLFDTAISLCQTFKLPLTPVFEGLAFKCIKLQFGGEAAQAEAWAWLAANQLSSVITTKESSATDEAWRLLSTYLERYKVQNNLYHHCVINKLLSHGVPLPNWLINSYKKVDAAELLRLYLNYDLLEEAVDLVSEYVDAVLGKGHQYFGIEFPLSATAPMVWLPYSSIDQLLQALGENSANSHNIALSQKILDKLEDYQQKVDKATRDLLYRRTL |

— publication PMC7366679
